For one molecule, binding results are on record in article PMC9642905.

Results are given in words; binding and its absence hold for the method and conditions named. Some entries that bind do so weakly or less than the wild type.

The assay addresses T1, RME-8 aa1322-1388 (DNAJ) fragment, wild-type, two-hybrid bait (Fig 4F) (C. elegans) (UniProt G5ED36).
T1 sequence: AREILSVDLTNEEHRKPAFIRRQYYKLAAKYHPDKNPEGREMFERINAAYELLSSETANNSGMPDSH
Briefly: two-hybrid; wild-type or mutant DNAJ domain (1322-1388) as bait, RME-8(1388-2279) as prey; spotted on SC-LEU-TRP growth or SC-LEU-TRP-URA assay media.

B1: RME-8(1388-2279), two-hybrid prey (Fig 4F) (domain or fragment, UniProt G5ED36 1388-2279)
chain: HRIVLCLQAQSIIYSRYSQELSEYKYAGYSQLIKTIDLEAKDEALFIKGGGDLLSAAIELANYTLISSALNAEQLRRDNGLEALVTAFDRCVPMVTMSSLPDDMAVRVCIHVCDCFATAATFEACRQRLMEMPSIFGALTRLLQFSNLPRLSTAAAQCIRAMAVDTLLQFQLFQTGVLWQLVPHLFHFDYTLDEGGVQHSEDSNKQSLANSLARSSCEALAALAGFRENTPDNDGVQASLRALLTPYICRCMKLETNDMVLKTLNSNMENPYMIWDNGTRAEVLEFVERHRTSNEPTSELYGAEFELSVHKNELIVGDIFIRIYNEQPTFALHEPKKVAIDLLDYIKKHSAELTGAPKPKAISDDLIEIDWGNGSQANGNSLDTETKVLMTMTALANLVSANPGALFANKKGVEILLIGNFPLLITYLRCRKHPKLQIAALQVILLAAANKECVTDLATCNVTTTLFTLLRDQPKMIARVLDVLIALSSNGQIGKEMLEHGGLMYILSILCLTNSDQGQRLQAAELLAKLQADKLTGPRWTRFIIKFLPEIFADSLRDSPNTALQMFDSSSENPELIWNEVTRQKVKGIIDTEVGKLYEQHIKDPTVKWNTTSLADKSCAYGDSINGELVVGGVFVRLYVENPGFNVRHPKLFSTELIEKVLELMSRPTPELDLVTKAFVELVRHHPNTADQLPSQGYLPQFCTAMCLQNTSASRSAILILQELSENQFCCDALSQLPCIDGIMKSMKNQPSLMRESAHALKCLMKRNTGELAQQMLSCGMVPYLLQVLDSSMNGVSNGAAARAEIVDALKSAILDLKVGQKIAEILDKSPVWAQFKDQRHDLFLPEARTQAITGGPTGVAGYLTEGMFNPPPMSNQPPPMHQTSGDFQPPL
As for B1, the binding result is “binds”.
